Data reported in the supplement of paper PMC11006884.
Only a part is listed here, and it is no random draw.

The chains behind the UniProt entries cited, without tags or fusion partners. Where a name states a change or a piece, a line headed by the entry shows the natural chain unless it says otherwise.
UniProt O00429, whole entry, looked up: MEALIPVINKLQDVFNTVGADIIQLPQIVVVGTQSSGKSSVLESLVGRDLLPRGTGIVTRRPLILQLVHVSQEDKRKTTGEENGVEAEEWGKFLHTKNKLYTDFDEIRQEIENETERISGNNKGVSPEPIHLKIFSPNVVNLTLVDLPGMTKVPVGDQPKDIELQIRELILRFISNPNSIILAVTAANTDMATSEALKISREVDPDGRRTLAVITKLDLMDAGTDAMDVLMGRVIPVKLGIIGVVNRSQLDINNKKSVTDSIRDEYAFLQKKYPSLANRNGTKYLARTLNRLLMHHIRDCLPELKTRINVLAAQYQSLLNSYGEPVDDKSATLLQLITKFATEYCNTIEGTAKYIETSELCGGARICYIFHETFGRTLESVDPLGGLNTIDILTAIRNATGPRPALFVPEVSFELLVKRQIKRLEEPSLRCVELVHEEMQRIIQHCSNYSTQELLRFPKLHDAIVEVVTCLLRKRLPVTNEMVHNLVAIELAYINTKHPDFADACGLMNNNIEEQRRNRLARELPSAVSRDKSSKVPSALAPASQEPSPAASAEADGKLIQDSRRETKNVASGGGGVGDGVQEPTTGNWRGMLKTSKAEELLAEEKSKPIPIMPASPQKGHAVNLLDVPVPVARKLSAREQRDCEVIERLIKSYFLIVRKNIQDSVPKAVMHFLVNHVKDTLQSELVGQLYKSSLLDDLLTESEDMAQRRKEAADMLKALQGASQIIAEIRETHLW
UniProt O00178: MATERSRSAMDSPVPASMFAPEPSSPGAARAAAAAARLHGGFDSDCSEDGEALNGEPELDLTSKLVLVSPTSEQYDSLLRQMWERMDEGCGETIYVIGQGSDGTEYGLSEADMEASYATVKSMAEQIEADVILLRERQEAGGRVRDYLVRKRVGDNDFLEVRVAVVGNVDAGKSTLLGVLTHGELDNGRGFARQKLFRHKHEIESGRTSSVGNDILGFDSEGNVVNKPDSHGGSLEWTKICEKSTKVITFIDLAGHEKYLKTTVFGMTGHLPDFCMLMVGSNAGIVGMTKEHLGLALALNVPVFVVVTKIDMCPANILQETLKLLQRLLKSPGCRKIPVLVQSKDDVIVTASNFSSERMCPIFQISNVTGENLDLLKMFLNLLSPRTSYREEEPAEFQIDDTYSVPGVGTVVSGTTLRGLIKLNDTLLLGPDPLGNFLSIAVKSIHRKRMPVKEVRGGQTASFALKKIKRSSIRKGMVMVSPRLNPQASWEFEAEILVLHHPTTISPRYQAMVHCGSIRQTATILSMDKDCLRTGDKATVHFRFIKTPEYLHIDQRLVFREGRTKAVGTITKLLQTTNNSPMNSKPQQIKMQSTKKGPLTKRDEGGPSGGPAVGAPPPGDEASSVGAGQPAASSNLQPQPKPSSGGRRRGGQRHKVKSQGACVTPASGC
UniProt O14654: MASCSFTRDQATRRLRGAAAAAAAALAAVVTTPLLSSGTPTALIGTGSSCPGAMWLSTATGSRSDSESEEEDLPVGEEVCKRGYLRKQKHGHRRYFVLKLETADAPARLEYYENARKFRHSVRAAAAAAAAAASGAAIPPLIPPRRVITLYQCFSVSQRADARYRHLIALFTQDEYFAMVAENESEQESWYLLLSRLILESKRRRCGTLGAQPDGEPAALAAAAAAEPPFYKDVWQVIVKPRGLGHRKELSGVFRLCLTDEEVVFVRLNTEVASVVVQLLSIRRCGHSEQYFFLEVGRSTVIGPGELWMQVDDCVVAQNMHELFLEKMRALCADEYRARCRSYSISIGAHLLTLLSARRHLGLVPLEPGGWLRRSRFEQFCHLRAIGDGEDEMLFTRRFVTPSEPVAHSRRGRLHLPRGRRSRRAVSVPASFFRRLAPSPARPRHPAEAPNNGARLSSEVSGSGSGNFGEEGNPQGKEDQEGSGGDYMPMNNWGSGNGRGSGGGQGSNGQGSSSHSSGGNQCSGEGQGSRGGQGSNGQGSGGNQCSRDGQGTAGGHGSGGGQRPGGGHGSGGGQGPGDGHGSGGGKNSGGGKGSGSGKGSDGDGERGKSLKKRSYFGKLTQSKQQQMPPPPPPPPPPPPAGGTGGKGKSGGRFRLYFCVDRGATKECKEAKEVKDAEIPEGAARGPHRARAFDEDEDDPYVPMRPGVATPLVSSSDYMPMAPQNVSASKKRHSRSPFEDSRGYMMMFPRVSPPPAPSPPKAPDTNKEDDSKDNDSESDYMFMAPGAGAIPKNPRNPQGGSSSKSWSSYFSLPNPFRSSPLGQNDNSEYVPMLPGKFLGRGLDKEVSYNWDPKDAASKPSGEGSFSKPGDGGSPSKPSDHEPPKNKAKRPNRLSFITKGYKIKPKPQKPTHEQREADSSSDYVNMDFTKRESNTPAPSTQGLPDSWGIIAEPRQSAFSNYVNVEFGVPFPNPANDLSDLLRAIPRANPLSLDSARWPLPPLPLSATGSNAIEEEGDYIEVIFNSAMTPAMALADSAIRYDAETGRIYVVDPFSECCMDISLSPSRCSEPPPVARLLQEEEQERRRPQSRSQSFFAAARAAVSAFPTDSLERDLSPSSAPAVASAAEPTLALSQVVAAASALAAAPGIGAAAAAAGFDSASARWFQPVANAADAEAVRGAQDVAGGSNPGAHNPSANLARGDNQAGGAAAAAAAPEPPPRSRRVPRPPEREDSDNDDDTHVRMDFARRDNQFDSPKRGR
UniProt O15067: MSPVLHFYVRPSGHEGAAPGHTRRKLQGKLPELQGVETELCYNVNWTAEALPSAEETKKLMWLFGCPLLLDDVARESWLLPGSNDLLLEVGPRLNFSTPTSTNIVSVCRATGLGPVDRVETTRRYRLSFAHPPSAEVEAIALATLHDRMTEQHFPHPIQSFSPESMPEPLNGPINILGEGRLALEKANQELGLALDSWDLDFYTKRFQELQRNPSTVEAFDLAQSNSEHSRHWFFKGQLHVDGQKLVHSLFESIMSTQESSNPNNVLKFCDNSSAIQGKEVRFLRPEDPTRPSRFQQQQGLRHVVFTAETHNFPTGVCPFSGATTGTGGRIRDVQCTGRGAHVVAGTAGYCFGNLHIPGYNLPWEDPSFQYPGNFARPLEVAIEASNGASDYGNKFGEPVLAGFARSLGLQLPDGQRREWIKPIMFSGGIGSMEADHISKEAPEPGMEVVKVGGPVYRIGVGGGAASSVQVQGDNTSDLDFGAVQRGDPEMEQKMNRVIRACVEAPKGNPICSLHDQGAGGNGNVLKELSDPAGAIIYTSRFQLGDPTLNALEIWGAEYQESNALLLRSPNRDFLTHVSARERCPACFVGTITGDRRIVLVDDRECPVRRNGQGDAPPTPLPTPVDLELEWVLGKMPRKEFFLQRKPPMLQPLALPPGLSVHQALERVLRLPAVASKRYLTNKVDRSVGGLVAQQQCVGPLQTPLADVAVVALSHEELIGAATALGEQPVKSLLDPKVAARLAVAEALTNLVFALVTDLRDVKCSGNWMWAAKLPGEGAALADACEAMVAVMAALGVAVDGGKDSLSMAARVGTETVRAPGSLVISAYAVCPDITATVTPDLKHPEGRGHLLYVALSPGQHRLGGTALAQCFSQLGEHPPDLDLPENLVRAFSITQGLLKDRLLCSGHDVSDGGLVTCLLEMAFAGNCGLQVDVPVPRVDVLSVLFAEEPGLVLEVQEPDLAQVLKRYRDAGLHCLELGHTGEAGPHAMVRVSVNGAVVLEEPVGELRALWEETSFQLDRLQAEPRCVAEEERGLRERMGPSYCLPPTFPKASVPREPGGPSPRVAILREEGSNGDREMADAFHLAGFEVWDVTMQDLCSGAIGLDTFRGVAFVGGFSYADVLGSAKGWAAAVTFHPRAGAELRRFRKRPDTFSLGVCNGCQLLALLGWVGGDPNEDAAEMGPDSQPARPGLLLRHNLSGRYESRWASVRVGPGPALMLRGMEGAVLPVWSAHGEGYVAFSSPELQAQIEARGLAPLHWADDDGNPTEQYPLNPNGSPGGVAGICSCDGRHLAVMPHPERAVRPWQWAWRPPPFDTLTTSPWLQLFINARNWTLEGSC
UniProt O14713: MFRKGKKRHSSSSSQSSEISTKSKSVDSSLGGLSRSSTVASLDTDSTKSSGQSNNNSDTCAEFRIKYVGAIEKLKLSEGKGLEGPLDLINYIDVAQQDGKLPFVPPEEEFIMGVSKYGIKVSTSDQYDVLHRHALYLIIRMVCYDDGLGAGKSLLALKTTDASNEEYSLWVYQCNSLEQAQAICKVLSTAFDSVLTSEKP
UniProt O00571: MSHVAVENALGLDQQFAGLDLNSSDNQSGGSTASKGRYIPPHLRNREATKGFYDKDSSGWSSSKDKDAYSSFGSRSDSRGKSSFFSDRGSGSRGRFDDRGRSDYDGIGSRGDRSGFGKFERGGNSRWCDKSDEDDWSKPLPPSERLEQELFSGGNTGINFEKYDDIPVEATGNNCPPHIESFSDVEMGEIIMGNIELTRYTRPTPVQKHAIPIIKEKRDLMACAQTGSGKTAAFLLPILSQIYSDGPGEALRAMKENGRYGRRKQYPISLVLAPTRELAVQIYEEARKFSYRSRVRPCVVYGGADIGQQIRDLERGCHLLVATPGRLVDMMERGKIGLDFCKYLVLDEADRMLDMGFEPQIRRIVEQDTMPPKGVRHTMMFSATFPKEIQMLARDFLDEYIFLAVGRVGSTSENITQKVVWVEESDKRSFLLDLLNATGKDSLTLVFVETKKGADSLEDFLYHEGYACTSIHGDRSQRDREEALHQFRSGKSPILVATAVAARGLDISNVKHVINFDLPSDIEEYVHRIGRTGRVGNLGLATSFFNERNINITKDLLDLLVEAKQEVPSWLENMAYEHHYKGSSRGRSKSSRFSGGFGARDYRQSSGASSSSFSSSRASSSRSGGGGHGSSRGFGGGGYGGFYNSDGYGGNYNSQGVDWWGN
UniProt O43159: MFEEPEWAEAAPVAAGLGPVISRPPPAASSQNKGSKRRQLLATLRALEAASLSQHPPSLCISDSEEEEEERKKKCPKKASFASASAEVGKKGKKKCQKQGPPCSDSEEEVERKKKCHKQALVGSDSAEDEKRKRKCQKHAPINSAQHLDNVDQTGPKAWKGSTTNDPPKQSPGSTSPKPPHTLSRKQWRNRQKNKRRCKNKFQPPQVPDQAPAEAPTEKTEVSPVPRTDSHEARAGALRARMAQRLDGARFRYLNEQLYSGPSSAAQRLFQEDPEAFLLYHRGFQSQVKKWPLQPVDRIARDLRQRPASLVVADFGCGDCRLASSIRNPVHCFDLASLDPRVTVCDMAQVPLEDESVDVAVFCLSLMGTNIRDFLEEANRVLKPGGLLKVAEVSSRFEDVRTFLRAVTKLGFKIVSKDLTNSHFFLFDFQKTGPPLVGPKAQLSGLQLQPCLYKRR
UniProt O15446, whole entry, looked up: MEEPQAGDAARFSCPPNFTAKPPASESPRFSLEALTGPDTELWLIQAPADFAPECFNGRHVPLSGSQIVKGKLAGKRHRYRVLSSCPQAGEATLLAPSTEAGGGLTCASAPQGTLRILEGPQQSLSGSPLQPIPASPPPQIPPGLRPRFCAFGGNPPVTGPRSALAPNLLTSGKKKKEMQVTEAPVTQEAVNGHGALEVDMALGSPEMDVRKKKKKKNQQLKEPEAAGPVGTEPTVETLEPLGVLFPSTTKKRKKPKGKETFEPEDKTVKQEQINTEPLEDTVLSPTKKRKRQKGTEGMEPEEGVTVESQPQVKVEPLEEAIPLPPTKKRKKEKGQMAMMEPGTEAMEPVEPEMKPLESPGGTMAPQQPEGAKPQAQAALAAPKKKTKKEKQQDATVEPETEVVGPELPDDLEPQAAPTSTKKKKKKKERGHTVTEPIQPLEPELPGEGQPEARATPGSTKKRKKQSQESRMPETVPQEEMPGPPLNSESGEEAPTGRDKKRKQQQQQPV
UniProt O00541, whole entry, looked up: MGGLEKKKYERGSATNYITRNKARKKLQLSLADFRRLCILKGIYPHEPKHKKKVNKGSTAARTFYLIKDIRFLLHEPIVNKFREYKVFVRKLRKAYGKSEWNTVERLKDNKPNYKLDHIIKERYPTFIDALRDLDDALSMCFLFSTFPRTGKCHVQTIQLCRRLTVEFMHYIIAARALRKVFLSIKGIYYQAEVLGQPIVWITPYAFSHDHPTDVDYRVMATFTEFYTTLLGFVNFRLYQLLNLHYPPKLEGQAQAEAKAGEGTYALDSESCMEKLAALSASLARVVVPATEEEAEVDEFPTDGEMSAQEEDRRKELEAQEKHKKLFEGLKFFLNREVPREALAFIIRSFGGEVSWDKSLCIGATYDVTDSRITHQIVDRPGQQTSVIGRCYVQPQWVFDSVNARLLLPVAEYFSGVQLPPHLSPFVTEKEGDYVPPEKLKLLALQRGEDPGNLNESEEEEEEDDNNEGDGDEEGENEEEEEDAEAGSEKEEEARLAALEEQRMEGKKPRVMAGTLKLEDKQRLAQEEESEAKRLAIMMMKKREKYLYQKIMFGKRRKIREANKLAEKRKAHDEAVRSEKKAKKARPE

Compound: COC(=O)C#Cc1ccccc1 [methyl 3-phenylpropiolate]
Experiment: log2 ratio of iodoacetamide-alkyne labeling of the cysteine site, DMSO over compound (competition); higher = stronger covalent engagement of the cysteine by the compound, active = 1 or more
Settings: 500 µM; treatment time 1 h; system: HEK293T cell lysate
In short: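 For each cysteine, the log2 competition ratio is mean control-channel reporter intensity over mean compound-channel reporter intensity. HEK293T lysate (2 mg/mL) was exposed to vehicle or electrophile (500 µM, 1 h, ambient temperature), labelled with iodoacetamide alkyne (1 h), clicked to sCIP-TMT reagents, digested overnight with trypsin at 37 °C, streptavidin-enriched and analysed by Orbitrap Eclipse LC-MS/MS with FAIMS and FragPipe. Cysteines quantified in only one of three replicates, each with duplicate channels, were excluded.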

Row | Target | log2 ratio of iodoacetamide-alkyne labeling
1 | ZNF609 C178 (UniProt O15014) | inactive: 0.382
2 | DNM1L C361 (UniProt O00429) | inactive: 0.736
3 | GTPBP1 C46 (UniProt O00178) | inactive: 0.388
4 | MYO1C C802 (UniProt O00159) | inactive: 0.993
5 | UniProt O14972_C243 | inactive: 0.293
6 | DFFA C38 (UniProt O00273) | inactive: 0.349
7 | APAF1 C115 (UniProt O14727) | inactive: 0.288
8 | UniProt O00567_C142 | inactive: 0.498
9 | MIF4GD C49 (UniProt A9UHW6) | inactive: 0.465
10 | UniProt O00567_C211 | active: 1.14
11 | KMT2D C5314 (UniProt O14686) | inactive: 0.502
12 | ANKRD28 C701 (UniProt O15084) | inactive: 0.336
13 | IRS4 C257 (UniProt O14654) | inactive: -0.26
14 | EIF3D C195 (UniProt O15371) | inactive: 0.141
15 | PFAS C270 (UniProt O15067) | inactive: 0.115
16 | ITGB1BP1 C60 (UniProt O14713) | inactive: 0.357
17 | DDX3X C223 (UniProt O00571) | inactive: 0.336
18 | UniProt O43159_C317 | inactive: 0.138
19 | GEMIN2 C63 (UniProt O14893) | inactive: 0.211
20 | EI24 C24 (UniProt O14681) | inactive: 0.163
21 | IRS4 C1055 (UniProt O14654) | inactive: 0.134
22 | PSMD11 C289 (UniProt O00231) | inactive: 0.253
23 | PFAS C606 (UniProt O15067) | active: 1.53
24 | DFFA C165 (UniProt O00273) | inactive: 0.146
25 | CD3EAP C107 (UniProt O15446) | inactive: 0.723
26 | EIF3D C437 (UniProt O15371) | inactive: -0.116
27 | PES1 C391 (UniProt O00541) | inactive: 0.153
28 | UniProt O14757_C168 | inactive: 0.157
29 | CASK C633 (UniProt O14936) | inactive: 0.956

2 entries picked at random from the list so far, as already listed:
Row | Target | log2 ratio of iodoacetamide-alkyne labeling
20 | EI24 C24 (UniProt O14681) | inactive: 0.163
15 | PFAS C270 (UniProt O15067) | inactive: 0.115
